In paper PMC5719040:
Results are given in words; binding and its absence hold for the method and conditions named. In cells and extracts the contact can be indirect. Some binding calls cover weakened binding; strength is not graded here.

Protein sequences, listed by entry. Tags and fused reporters are not part of them. Residues count along the entry.
UniProt P31422, residues 23-879: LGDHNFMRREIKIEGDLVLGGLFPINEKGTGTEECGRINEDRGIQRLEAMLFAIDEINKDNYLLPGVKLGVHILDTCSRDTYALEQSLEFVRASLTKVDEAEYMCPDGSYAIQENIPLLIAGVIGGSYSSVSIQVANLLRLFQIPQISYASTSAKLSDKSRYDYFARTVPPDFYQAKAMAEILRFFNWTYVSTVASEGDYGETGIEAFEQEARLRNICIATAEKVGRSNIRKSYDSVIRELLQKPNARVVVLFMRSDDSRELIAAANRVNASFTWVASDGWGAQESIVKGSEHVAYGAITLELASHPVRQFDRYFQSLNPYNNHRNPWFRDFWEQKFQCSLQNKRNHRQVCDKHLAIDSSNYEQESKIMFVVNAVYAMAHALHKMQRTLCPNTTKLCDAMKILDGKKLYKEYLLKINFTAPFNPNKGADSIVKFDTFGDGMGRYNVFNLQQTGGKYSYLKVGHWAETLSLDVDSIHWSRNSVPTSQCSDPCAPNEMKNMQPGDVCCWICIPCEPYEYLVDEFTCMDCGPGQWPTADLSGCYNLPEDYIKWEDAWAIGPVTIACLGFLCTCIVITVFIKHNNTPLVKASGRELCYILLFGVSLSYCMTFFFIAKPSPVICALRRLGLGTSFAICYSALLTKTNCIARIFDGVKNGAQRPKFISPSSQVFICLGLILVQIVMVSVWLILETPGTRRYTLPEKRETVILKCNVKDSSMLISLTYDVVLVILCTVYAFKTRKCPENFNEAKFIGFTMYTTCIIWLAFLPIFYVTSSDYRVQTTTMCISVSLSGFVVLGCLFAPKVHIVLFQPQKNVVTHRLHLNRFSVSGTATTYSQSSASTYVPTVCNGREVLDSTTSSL
UniProt P31423, residues 33-912: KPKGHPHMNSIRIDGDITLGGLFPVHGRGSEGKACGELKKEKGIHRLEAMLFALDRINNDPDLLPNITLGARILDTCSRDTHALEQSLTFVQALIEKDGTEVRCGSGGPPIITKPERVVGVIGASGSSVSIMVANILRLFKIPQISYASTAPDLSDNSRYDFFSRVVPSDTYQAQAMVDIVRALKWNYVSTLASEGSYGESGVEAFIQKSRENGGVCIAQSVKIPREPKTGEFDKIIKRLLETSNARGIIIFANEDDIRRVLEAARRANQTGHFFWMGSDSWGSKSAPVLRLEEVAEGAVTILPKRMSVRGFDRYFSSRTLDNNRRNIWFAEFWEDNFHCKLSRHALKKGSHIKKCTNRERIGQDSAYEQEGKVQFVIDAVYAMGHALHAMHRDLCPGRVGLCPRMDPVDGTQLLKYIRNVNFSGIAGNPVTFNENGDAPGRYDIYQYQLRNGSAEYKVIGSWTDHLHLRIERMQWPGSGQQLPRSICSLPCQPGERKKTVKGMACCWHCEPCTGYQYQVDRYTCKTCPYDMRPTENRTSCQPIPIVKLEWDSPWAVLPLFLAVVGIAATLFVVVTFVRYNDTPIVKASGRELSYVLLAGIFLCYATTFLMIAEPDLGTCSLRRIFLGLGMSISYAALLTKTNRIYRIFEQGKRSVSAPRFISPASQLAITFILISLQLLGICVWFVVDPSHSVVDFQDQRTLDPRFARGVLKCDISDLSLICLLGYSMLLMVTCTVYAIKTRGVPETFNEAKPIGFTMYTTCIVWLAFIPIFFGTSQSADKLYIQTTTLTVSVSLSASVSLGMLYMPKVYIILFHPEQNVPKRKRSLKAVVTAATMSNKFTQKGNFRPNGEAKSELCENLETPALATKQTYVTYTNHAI
UniProt P31421, residues 19-872: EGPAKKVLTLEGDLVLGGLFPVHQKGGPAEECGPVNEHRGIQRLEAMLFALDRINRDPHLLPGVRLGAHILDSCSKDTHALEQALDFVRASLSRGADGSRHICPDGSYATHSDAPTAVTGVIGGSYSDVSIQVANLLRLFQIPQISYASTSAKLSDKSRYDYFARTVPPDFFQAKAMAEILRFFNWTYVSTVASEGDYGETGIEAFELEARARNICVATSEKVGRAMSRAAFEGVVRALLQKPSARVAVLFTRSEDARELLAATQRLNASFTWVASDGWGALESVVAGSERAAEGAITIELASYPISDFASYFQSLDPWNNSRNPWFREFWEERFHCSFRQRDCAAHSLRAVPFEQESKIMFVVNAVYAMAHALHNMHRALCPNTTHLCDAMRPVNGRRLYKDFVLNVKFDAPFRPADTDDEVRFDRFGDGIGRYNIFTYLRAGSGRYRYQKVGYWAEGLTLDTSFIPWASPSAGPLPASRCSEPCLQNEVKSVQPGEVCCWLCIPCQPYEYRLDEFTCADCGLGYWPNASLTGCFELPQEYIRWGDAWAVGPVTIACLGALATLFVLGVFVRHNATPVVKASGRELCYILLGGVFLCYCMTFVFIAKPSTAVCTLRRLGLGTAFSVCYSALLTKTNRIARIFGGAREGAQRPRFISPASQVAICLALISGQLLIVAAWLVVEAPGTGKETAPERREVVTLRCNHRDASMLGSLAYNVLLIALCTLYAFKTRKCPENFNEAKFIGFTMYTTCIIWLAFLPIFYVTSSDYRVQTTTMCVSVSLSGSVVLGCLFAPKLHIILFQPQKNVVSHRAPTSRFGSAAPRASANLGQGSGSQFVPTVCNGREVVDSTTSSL

How the values were obtained:
[1] = target: rat SNAP-tagged mGlu3 (rat) (UniProt P31422); test: FRET or BRET; TR-FRET on HEK-293 cells cotransfected with rat SNAP-mGlu3 or SNAP-mGlu4 (labelled with SNAP-Lumi4-Tb), HA-tagged mGlu2 and EAAC1; the mGlu2 subunit is reported by the c-Myc-tagged mGlu2-specific nanobody DN1 and 200 nM anti-c-Myc-d2; with 100 µM LY341495 or 100 µM glutamate; Krebs buffer
[2] = target: rat SNAP-tagged mGlu4 (rat) (UniProt P31423); test: as above

**Q.** “rat mGlu2 subunit, HA-tagged (no SNAP tag) (from UniProt P31421 19-872) (receptor)” was tested. Which binding [1] did it give?
**A.** Its binding is “binds”.

**Q.** And the binding [2]?
**A.** The binding was “binds”.
